Measurements published in paper PMC7607167.
Results are given in words; binding and its absence hold for the method and conditions named. For some assays here: In cells and extracts the contact can be indirect. Some results given as binding are weak or reduced against the parent protein; the word gives no strength.

Sequences of proteins named here, by UniProt entry; tags and fusion partners are left off.
UniProt Q9BYV9: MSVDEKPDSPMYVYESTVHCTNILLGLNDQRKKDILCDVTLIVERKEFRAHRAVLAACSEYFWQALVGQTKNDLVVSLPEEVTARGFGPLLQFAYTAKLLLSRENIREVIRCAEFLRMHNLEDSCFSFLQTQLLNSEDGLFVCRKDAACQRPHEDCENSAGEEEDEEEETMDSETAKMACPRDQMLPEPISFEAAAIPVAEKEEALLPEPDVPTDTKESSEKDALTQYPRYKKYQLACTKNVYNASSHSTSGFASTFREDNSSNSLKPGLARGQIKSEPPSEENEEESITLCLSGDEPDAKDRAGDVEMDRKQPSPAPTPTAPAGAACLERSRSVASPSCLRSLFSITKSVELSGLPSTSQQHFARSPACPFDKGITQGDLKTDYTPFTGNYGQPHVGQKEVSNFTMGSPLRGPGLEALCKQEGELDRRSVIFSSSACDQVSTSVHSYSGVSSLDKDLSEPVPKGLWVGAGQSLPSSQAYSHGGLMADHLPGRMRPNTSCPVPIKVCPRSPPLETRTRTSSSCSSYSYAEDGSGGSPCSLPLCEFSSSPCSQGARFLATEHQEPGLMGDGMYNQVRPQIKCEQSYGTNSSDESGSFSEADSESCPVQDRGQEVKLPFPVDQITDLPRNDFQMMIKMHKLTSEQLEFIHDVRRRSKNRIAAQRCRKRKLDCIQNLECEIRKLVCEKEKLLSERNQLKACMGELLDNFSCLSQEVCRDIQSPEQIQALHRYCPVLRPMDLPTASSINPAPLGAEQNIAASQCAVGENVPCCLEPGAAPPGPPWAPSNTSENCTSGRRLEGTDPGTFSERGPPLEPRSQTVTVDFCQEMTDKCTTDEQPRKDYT
UniProt P35637: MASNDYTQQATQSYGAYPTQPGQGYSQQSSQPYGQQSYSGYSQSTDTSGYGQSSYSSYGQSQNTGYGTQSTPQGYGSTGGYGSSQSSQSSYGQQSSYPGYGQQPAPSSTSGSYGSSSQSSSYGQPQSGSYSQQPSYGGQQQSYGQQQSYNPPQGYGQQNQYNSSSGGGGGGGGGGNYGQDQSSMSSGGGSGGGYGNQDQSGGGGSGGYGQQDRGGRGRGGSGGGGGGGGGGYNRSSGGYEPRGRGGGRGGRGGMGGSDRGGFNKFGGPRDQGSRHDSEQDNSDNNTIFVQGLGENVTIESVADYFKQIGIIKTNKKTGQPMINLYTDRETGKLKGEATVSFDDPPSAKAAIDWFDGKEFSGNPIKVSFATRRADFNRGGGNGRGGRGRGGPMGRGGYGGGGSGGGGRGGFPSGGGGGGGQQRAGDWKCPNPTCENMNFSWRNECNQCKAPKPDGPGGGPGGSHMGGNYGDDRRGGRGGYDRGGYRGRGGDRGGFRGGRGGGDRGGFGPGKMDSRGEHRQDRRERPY

How the values were obtained:
[1] = biological target: BTB and CNC homolog 2 (BACH2), endogenous (human (endogenous in glioma cells, U87 and U251)) (UniProt Q9BYV9); test: co-IP; Pierce Co-IP kit; antibody coupled to resin at 4 °C overnight; glioma cell lysates precipitated with anti-BACH2 or anti-IgG, blotted with anti-FUS and anti-BACH2
[2] = biological target: GST-BACH2 fusion protein (BTB and CNC homolog 2) (UniProt Q9BYV9); test: pull-down; GST or GST-BACH2 bound to GSH-agarose beads incubated with purified His-FUS for 6 h at 4 °C; eluate blotted with anti-GST and anti-FUS; both purified

binding [1]	binding [2]	Substance
binds		Fused in sarcoma (FUS), endogenous (from UniProt P35637 1-526)
	binds	His-FUS fusion protein (fused in sarcoma) (from UniProt P35637 1-526)
